These are yes or no findings as the source states them, for the method shown. Some results given as binding are weak or reduced against the parent protein; the word gives no strength.
B1: Kp 7-9 (peptide)
peptide: YCDEKFCY
modifications: Cys2 and Cys7 joined by an intramolecular disulfide (cyclised)
B2: Kp 7-3 (peptide)
peptide: YCDEGLCY
modifications: Cys2 and Cys7 joined by an intramolecular disulfide (cyclised)
B3: Kp 4-2 (peptide)
peptide: YCQEKEYCY
modifications: Cys2 and Cys8 joined by an intramolecular disulfide (cyclised)
B4: Kp 7-4 (peptide)
peptide: YCDEGYFCY
modifications: Cys2 and Cys8 joined by an intramolecular disulfide (cyclised)
B5: Kp 7-2 (peptide)
peptide: YCDEGHLCY
modifications: Cys2 and Cys8 joined by an intramolecular disulfide (cyclised)
B6: Kp 4-3 (peptide)
peptide: YCQERKEYCY
modifications: Cys2 and Cys9 joined by an intramolecular disulfide (cyclised)

Protein sequences, listed by entry. Tags and fused reporters are not part of them. Residues count along the entry.
UniProt P48023, residues 103-281: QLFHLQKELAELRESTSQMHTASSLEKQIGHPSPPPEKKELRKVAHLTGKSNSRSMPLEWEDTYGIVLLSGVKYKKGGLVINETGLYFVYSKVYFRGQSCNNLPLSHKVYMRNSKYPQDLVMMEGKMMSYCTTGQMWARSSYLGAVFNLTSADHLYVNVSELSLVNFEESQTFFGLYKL

target: Flag-tagged soluble human Fas ligand (FasL-Flag) (human) (UniProt P48023); test: competition ELISA: FasL-Flag (100 ng/ml) preincubated with peptide, added to immobilised Fas-Fc, anti-Flag-HRP detection; blocked partner Fas-Fc

| binding | Binder |
| --- | --- |
| binds | B1 |
| binds | B2 |
| binds | B3 |
| binds | B4 |
| binds | B5 |
| binds | B6 |

target: Flag-tagged soluble human Fas ligand (FasL-Flag) (human) (UniProt P48023); test: competition ELISA, dose response: FasL-Flag (100 ng/ml) preincubated with peptide, added to immobilised Fas-Fc; blocked partner Fas-Fc

| binding | Binder |
| --- | --- |
| binds | B5 |

From US20040132641A1 (University of Pennsylvania, published 2004)
